Test: general procedure: Boc solid-phase peptide synthesis; p-methylbenzhydrylamine (pMBHA) resin; DCC/HOBt
Conditions: whole synthesis

Row | Substance | isolated yield | isolated yield (scale 0.5 mmol)
1 | Ac-[Nle⁴, Asp⁵, D-Phe⁷, Dpr¹⁰]-alpha-MSH₄₋₁₀NH₂ | 36% | –
2 | Ac-[Nle⁴, Lys¹⁰]-alpha-MSH₄₋₁₀NH₂ | 40% | –
3 | Ac-[Nle⁴, Asp⁵, D-Phe⁷, Dab¹⁰]-alpha-MSH₄₋₁₀NH₂ | 36% | –
4 | Ac-[Nle⁴, D-Phe⁷, Lys¹⁰, Gly¹¹]-alpha-MSH₄₋₁₃NH₂ | – | 22%
5 | Ac-[Nle⁴, Asp⁵, Lys¹⁰]-alpha-MSH₄₋₁₀NH₂ | 37% | –

Reference: patent EP0292291B1 (UNIVERSITY PATENTS, INC., priority 1987, dated 1988)
